Values are raw readings; no control value is given beside them.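 Maximum concentrations were near the MIC for antimicrobials, 500 µM for most other compounds, and as high as 1 mM for known inducer-like compounds. Deletion strains began with a tenfold smaller inoculum, and wells with growth under 10% of the overall median counted as non-growing.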
Tested on: Escherichia coli BW25113
Assay: growth (OD600 area under curve, 8 h) (OD600 x h); higher = more growth
Method: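 E. coli BW25113 reporter strains (wild type, ΔmarA, ΔsoxS, Δrob, each carrying one of 8 lux reporter plasmids) were grown in 40 µl LB in 384-well plates at 37°C, 800 rpm, with each compound at 4 two-fold concentrations, in biological duplicates. Growth is the baseline-corrected OD600 area under the curve over 8 h (0-8 h WT, 1-9 h deletion strains).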

CO/N=C(\C(=O)N[C@@H]1C(=O)N2C(C(=O)O)=C(COC(C)=O)CS[C@H]12)c1csc(N)n1 [Cefotaxime]
growth
Settings | reporter plasmid: EVC | reporter plasmid: acrABp | reporter plasmid: marRABp | reporter plasmid: micFp | reporter plasmid: ompFp | reporter plasmid: robp | reporter plasmid: soxSp | reporter plasmid: tolCp
0.0012 µg/ml, genetic background: wild type | 2.92 | 3.35 | 3.3149 | 2.99 | 3.17 | 3.4 | 2.957 | 3.14
0.0012 µg/ml, genetic background: ΔmarA | 3.06 | 3.97 | 3.63 | 3.23 | 3.61 | 4 | 3.15 | 3.09
0.0012 µg/ml, genetic background: Δrob | 3.02 | 3.18 | 3.39 | 2.937 | 2.76 | 2.87 | 2.698 | 3.119
0.0012 µg/ml, genetic background: ΔsoxS | 3.25 | 3.3 | 3.32 | 2.968 | 3.21 | 3.33 | 3.34 | 2.9889
0.0024 µg/ml, genetic background: wild type | 2.75 | 3.29 | 3.17 | 2.97 | 3.13 | 3.25 | 2.86 | 3.01
0.0024 µg/ml, genetic background: ΔmarA | 2.88 | 3.8 | 3.56 | 3.15 | 3.55 | 3.87 | 2.98 | 3.05
0.0024 µg/ml, genetic background: Δrob | 3.01 | 2.97 | 3.43 | 3.01 | 2.72 | 3 | 2.57 | 2.958
0.0024 µg/ml, genetic background: ΔsoxS | 3.13 | 3.25 | 3.27 | 2.96 | 3.34 | 3.25 | 3.24 | 2.99
0.0048 µg/ml, genetic background: wild type | 2.746 | 3.42 | 3.43 | 2.92 | 3.25 | 3.43 | 2.98 | 3
0.0048 µg/ml, genetic background: ΔmarA | 2.99 | 3.97 | 3.71 | 3.2 | 3.75 | 4.07 | 3.02 | 3.1
0.0048 µg/ml, genetic background: Δrob | 2.961 | 3.3 | 3.44 | 2.75 | 2.86 | 2.72 | 2.63 | 2.98
0.0048 µg/ml, genetic background: ΔsoxS | 3.31 | 3.39 | 3.49 | 3.1 | 3.31 | 3.49 | 3.28 | 3.031
0.01 µg/ml, genetic background: wild type | 2.26 | 2.18 | 2.23 | 2.45 | 2.05 | 2.54 | 2.65 | 2.73
0.01 µg/ml, genetic background: ΔmarA | 2.85 | 1.7 | 1.38 | 2.81 | 0.758 | 2.6 | 2.88 | 2.78
0.01 µg/ml, genetic background: Δrob | 2.729 | 1.12 | 1.89 | 2.38 | 0.473 | 0.561 | 2.475 | 2.709
0.01 µg/ml, genetic background: ΔsoxS | 2.98 | 1.72 | 1.89 | 2.413 | 0.808 | 0.924 | 2.28 | 2.81

C/C=C/C/C=C/CCC(=O)[C@H]1O[C@H]1C(N)=O [Cerulenin]
growth
Settings | reporter plasmid: EVC | reporter plasmid: acrABp | reporter plasmid: marRABp | reporter plasmid: micFp | reporter plasmid: ompFp | reporter plasmid: robp | reporter plasmid: soxSp | reporter plasmid: tolCp
1.3 µg/ml, genetic background: wild type | 2.81 | 2.48 | 3.01 | 2.89 | 2.64 | 2.95 | 2.79 | 2.86
1.3 µg/ml, genetic background: ΔmarA | 3.11 | 3.37 | 3.15 | 2.91 | 3.05 | 3.08 | 2.63 | 2.78
1.3 µg/ml, genetic background: Δrob | 2.38 | 2.98 | 3.06 | 2.98 | 2.16 | 2.3 | 2.77 | 2.82
1.3 µg/ml, genetic background: ΔsoxS | 2.6 | 2.63 | 2.76 | 2.57 | 2.44 | 2.82 | 2.72 | 2.73
2.5 µg/ml, genetic background: wild type | 2.74 | 2.67 | 2.89 | 2.73 | 2.68 | 3.05 | 2.487 | 2.57
2.5 µg/ml, genetic background: ΔmarA | 3.22 | 4.05 | 2.74 | 2.96 | 2.68 | 2.86 | 2.57 | 2.78
2.5 µg/ml, genetic background: Δrob | 2.59 | 3.55 | 3.28 | 2.74 | 2.21 | 2.56 | 2.54 | 2.52
2.5 µg/ml, genetic background: ΔsoxS | 2.5 | 2.87 | 2.86 | 2.29 | 2.58 | 2.821 | 2.81 | 2.57
5 µg/ml, genetic background: wild type | 2.81 | 2.68 | 3.194 | 2.8 | 2.68 | 2.89 | 2.69 | 2.81
5 µg/ml, genetic background: ΔmarA | 2.88 | 3.53 | 3.03 | 2.68 | 3.05 | 3.28 | 2.35 | 2.71
5 µg/ml, genetic background: Δrob | 2.4 | 2.96 | 3.22 | 2.97 | 2.4 | 2.44 | 2.55 | 2.75
5 µg/ml, genetic background: ΔsoxS | 2.56 | 2.72 | 3.08 | 2.23 | 2.65 | 3.03 | 2.81 | 2.59
10 µg/ml, genetic background: wild type | 2.66 | 2.46 | 2.67 | 2.66 | 2.07 | 2.41 | 2.33 | 2.45
10 µg/ml, genetic background: ΔmarA | 2.67 | 2.47 | 2.19 | 2.52 | 1.79 | 2.6 | 2.12 | 2.49
10 µg/ml, genetic background: Δrob | 2.1 | 2.31 | 2.4 | 2.32 | 1.51 | 1.77 | 2.32 | 2.34
10 µg/ml, genetic background: ΔsoxS | 2.21 | 2.52 | 2.56 | 1.84 | 1.55 | 2.14 | 2.19 | 2.52

From the supplement of paper PMC12282887
